According to PMC12339387:
Results are given in words; binding and its absence hold for the method and conditions named. Binding seen in cells or lysates may run through a third protein. A yes stands for co-enrichment or nearness to the bait. Other partners may have been found.

Amino acid sequences for entries named in this document (tags omitted).
UniProt Q92793: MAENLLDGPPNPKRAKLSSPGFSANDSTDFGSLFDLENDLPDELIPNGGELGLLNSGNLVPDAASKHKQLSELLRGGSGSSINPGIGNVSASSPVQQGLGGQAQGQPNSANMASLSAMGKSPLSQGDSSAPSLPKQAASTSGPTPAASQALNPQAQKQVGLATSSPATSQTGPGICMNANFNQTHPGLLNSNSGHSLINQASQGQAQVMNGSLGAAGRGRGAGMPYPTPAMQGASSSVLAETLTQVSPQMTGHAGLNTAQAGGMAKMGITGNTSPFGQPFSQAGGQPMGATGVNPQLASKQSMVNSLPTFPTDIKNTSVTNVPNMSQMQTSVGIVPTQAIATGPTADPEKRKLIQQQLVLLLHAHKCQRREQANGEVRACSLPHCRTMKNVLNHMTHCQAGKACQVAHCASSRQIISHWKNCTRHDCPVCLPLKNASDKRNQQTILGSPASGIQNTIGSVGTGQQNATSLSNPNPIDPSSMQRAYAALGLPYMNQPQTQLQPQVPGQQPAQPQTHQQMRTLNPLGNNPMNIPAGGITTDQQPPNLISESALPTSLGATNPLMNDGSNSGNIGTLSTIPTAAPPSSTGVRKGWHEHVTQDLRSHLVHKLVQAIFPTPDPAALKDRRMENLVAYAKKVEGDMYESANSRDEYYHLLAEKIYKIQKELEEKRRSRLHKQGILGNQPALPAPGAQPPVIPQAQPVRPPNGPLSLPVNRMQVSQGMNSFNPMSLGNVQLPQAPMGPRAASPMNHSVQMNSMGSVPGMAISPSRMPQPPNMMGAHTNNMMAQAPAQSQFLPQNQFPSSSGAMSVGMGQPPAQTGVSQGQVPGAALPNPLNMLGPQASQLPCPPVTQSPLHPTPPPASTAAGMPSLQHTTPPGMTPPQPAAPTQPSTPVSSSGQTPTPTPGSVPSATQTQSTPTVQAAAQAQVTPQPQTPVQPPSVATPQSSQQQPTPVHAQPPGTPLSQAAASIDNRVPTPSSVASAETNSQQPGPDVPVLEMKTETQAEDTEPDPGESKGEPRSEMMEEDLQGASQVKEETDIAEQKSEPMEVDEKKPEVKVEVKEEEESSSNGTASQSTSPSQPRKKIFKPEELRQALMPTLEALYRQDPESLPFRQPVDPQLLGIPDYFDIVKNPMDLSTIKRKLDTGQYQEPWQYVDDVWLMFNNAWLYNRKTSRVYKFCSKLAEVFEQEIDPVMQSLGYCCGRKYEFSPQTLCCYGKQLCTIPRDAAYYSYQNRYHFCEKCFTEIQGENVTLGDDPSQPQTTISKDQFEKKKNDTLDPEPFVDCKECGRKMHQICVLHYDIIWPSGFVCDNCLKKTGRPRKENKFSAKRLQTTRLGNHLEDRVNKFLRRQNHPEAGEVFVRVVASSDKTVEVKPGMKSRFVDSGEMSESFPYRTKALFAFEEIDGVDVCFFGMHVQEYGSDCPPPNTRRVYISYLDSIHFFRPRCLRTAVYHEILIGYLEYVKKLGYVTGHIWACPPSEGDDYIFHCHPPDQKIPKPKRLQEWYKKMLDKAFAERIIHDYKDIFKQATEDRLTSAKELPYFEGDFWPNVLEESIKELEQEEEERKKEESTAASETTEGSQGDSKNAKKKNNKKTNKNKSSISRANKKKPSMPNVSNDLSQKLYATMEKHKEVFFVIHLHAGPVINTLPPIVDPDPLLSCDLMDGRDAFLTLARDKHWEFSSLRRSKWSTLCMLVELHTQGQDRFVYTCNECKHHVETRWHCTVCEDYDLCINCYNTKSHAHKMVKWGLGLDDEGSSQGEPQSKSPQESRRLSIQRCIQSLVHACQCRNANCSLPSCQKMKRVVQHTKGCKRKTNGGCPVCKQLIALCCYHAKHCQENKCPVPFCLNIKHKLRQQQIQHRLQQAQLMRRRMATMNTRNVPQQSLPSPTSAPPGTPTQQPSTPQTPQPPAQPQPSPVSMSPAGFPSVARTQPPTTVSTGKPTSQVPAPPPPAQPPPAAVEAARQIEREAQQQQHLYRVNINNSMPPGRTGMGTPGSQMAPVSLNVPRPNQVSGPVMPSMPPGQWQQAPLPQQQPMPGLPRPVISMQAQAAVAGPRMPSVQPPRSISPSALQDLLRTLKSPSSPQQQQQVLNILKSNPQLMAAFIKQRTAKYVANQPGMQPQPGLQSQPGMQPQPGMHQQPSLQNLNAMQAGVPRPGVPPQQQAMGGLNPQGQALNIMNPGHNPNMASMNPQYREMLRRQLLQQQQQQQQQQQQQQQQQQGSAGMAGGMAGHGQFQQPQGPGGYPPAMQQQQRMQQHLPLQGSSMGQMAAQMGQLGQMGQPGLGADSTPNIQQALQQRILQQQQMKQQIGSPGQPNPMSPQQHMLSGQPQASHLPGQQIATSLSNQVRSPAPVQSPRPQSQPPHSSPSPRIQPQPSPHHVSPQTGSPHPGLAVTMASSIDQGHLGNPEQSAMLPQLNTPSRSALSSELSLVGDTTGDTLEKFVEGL

Biological target: T1, FOXA2 (stably overexpressed in LuNE cells) (human) (UniProt Q9Y261)
T1 sequence: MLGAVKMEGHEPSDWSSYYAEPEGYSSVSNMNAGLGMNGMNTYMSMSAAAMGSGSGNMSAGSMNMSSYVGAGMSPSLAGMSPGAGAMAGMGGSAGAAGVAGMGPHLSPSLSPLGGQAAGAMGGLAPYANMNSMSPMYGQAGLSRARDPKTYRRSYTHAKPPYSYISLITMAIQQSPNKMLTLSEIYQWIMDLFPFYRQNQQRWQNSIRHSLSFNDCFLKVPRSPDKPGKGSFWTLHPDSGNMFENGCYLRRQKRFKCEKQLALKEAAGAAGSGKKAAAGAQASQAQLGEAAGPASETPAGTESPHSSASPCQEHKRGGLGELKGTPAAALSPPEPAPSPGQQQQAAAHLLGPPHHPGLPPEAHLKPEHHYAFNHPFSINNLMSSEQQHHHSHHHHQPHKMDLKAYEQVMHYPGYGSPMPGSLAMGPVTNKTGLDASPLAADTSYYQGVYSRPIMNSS
Test: affinity purification with mass spectrometry; FOXA2 versus IgG Co-IP from the chromatin fraction of LuNE cells, three replicates pooled, Orbitrap Velos Pro, SEQUEST (Fig. 7a)

In the case of “CREBBP (CBP) (from UniProt Q92793 1-2442) (enzyme)”, the binding is reported as “binds”.
